HELM strings list residues between dots; [ac] is acetyl, [am] amide, other brackets name non-standard units.
Assay: general procedure: solution-phase peptide synthesis; EDCI/HOBT (fragment coupling); HATU/HOAT/DIPEA (cyclisation)
Details: trifluoroacetate salt

| Substance | step yield (coupling step) | crude yield (whole synthesis, overall) |
| --- | --- | --- |
| CBZ-Asp(O^tBu)-(beta-Lactam)-Arg(PBF)-Gly-OBn | 82% | – |
| PEPTIDE1{R.G.D.[bLac3R]}$PEPTIDE1,PEPTIDE1,1:R1-4:R2$$$V2.0 | – | 17% |
